Experimental data from patent publication US7253165B2, “Benzisoxazolyl-, pyridoisoxazolyl-and benzthienyl-phenoxy derivatives useful as D4 antagonists” (Aventis Pharmaceuticals Inc., priority 1999, dated 2007).
The structures given here were assigned with low confidence; some may be wrong.

Amino acid sequences for entries named in this document (tags omitted). Chains listed by the source or under a name are the forms on record and can include a tag or linker.
UniProt P21917, with tags, fused parts or gaps DEL265-296: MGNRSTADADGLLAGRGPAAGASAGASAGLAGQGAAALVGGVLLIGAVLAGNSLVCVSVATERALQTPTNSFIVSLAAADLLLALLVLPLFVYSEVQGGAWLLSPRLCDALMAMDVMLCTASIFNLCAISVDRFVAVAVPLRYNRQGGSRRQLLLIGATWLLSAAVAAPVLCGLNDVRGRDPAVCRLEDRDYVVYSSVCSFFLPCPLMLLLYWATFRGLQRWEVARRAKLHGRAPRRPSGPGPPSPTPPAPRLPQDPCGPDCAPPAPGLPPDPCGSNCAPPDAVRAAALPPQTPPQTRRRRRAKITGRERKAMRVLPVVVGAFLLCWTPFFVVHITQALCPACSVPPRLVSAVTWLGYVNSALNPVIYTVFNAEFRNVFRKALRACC

Target: human D4 receptor (D4.2 sub-type) (Homo sapiens, UniProt P21917, DEL265-296)
Assay: D4 receptor binding assay, displacement of 3H-spiperone
Settings: read-out: D4 RBA Ki; 3H-spiperone 0.25 nM, membranes of HEK cells transfected with human D4.2; * = HCl salt
Description: D4 receptor-binding affinities of the compounds were evaluated according to their ability to reduce binding of ^3H-spiperone as compared to the reference compound clozapine. The potency of the test compound to reduce ^3H-spiperone binding directly correlated to its binding affinity for the receptor.
[…] (human embryonic kidney) cells stably transfected with human D4 receptor (D4.2 sub-type) were grown in NUNC cell factories for 5 days (75% confluency) without a media change and removed with versene (approximately 19 mg of cells per cell factory tray). The cells were then centrifuged in a Sorval centrifuge for 10 min, 5000 rpm (GS3 rotor) and the pellets quickly frozen in liquid nitrogen and stored at −80° C. until used in binding assay. When used in the assay, cells were thawed on ice for 20 min and then 10 mL of incubation buffer (50 mM Tris, 1 mM EDTA, 4 mM MgCl2, 5 mM KCl, 1.5 mM CaCl2, 120 mM NaCl, pH 7.4) was added. The cells were then vortexed to resuspend pellet and homogenized with a Kinematica, CH-6010 Kriens-LU, homogenizer for 15 seconds at setting 7. Concentration of receptor protein was determined using the Pierce BCA assay.
The incubation was started by the addition of 100 μl (50 μg protein) membrane homogenate to a solution of 300 μl incubation buffer and 100 μl (0.25 nM final conc.) ^3H-spiperone (90 Ci/mmol, Amersham, diluted in borosilicate glass vial) in 96-well polypropylene plates (1 ML per well). […] The plates were sealed and counted in the Packard Top Count (3 minutes per well).
The incubation was started by the addition of 100 μl (50 μg protein) membrane homogenate to a solution of 200 μl incubation buffer, 100 μl ^3H-spiperone (90 Ci/mmol, Amersham, diluted in borosilicate glass vial to 0.25 nM final conc.) and 100 μl (30 μM final conc.) of fresh dopamine (Research Biochemicals Inc., light protected and dissolved in incubation buffer) in 96-well polypropylene plates (1 mL per well). […] The filters were washed and counted using the same procedure as in the total binding assay described above to give the non-specific binding value (NSB). […]

SMILES | Ki
Fc1ccc2c(-c3ccc(OCCCN4CCCCC4)cc3)noc2c1 | 0.0098 µM
O[C@@H](COc1ccc(-c2noc3cc(F)ccc23)cc1)CN1CCOCC1 [Example 24, (R)-1-[4-(6-fluoro-benzo[d]isoxazol-3-yl)-phenoxy]-3-morpholin-4-yl-propan-2-ol] | 0.088 µM
O[C@@H](COc1ccc(-c2noc3cc(F)ccc23)cc1)CN1CCN(c2ccccc2)CC1 [Example 26, (R)-1-[4-(6-fluoro-benzo[d]isoxazol-3-yl)-phenoxy]-3-(4-phenyl-piperazin-1-yl)-propan-2-ol] | 0.017 µM
